Data: publication PMC7956269
Results are given in words; binding and its absence hold for the method and conditions named. In cells and extracts the contact can be indirect. These calls come from enrichment with a bait or labelling near it, and not all partners need be listed.

B1: Riok1 (protein, UniProt Q9BRS2 1-568)
chain: MDYRRLLMSRVVPGQFDDADSSDSENRDLKTVKEKDDILFEDLQDNVNENGEGEIEDEEEEGYDDDDDDWDWDEGVGKLAKGYVWNGGSNPQANRQTSDSSSAKMSTPADKVLRKFENKINLDKLNVTDSVINKVTEKSRQKEADMYRIKDKADRATVEQVLDPRTRMILFKMLTRGIITEINGCISTGKEANVYHASTANGESRAIKIYKTSILVFKDRDKYVSGEFRFRHGYCKGNPRKMVKTWAEKEMRNLIRLNTAEIPCPEPIMLRSHVLVMSFIGKDDMPAPLLKNVQLSESKARELYLQVIQYMRRMYQDARLVHADLSEFNMLYHGGGVYIIDVSQSVEHDHPHALEFLRKDCANVNDFFMRHSVAVMTVRELFEFVTDPSITHENMDAYLSKAMEIASQRTKEERSSQDHVDEEVFKRAYIPRTLNEVKNYERDMDIIMKLKEEDMAMNAQQDNILYQTVTGLKKDLSGVQKVPALLENQVEERTCSDSEDIGSSECSDTDSEEQGDHARPKKHTTDPDIDKKERKKMVKEAQREKRKNKIPKHVKKRKEKTAKTKKGK
B2: Mccc2 (protein, UniProt Q9HCC0 23-563)
chain: YHGDSVASLGTQPDLGSALYQENYKQMKALVNQLHERVEHIKLGGGEKARALHISRGKLLPRERIDNLIDPGSPFLELSQFAGYQLYDNEEVPGGGIITGIGRVSGVECMIIANDATVKGGAYYPVTVKKQLRAQEIAMQNRLPCIYLVDSGGAYLPRQADVFPDRDHFGRTFYNQAIMSSKNIAQIAVVMGSCTAGGAYVPAMADENIIVRKQGTIFLAGPPLVKAATGEEVSAEDLGGADLHCRKSGVSDHWALDDHHALHLTRKVVRNLNYQKKLDVTIEPSEEPLFPADELYGIVGANLKRSFDVREVIARIVDGSRFTEFKAFYGDTLVTGFARIFGYPVGIVGNNGVLFSESAKKGTHFVQLCCQRNIPLLFLQNITGFMVGREYEAEGIAKDGAKMVAAVACAQVPKITLIIGGSYGAGNYGMCGRAYSPRFLYIWPNARISVMGGEQAANVLATITKDQRAREGKQFSSADEAALKEPIIKKFEEEGNPYYSSARVWDDGIIDPADTRLVLGLSFSAALNAPIEKTDFGIFRM
B3: Ap3b1 (protein, UniProt O00203 1-1094)
chain: MSSNSFPYNEQSGGGEATELGQEATSTISPSGAFGLFSSDLKKNEDLKQMLESNKDSAKLDAMKRIVGMIAKGKNASELFPAVVKNVASKNIEIKKLVYVYLVRYAEEQQDLALLSISTFQRALKDPNQLIRASALRVLSSIRVPIIVPIMMLAIKEASADLSPYVRKNAAHAIQKLYSLDPEQKEMLIEVIEKLLKDKSTLVAGSVVMAFEEVCPDRIDLIHKNYRKLCNLLVDVEEWGQVVIIHMLTRYARTQFVSPWKEGDELEDNGKNFYESDDDQKEKTDKKKKPYTMDPDHRLLIRNTKPLLQSRNAAVVMAVAQLYWHISPKSEAGIISKSLVRLLRSNREVQYIVLQNIATMSIQRKGMFEPYLKSFYVRSTDPTMIKTLKLEILTNLANEANISTLLREFQTYVKSQDKQFAAATIQTIGRCATNILEVTDTCLNGLVCLLSNRDEIVVAESVVVIKKLLQMQPAQHGEIIKHMAKLLDSITVPVARASILWLIGENCERVPKIAPDVLRKMAKSFTSEDDLVKLQILNLGAKLYLTNSKQTKLLTQYILNLGKYDQNYDIRDRTRFIRQLIVPNVKSGALSKYAKKIFLAQKPAPLLESPFKDRDHFQLGTLSHTLNIKATGYLELSNWPEVAPDPSVRNVEVIELAKEWTPAGKAKQENSAKKFYSESEEEEDSSDSSSDSESESGSESGEQGESGEEGDSNEDSSEDSSSEQDSESGRESGLENKRTAKRNSKAKGKSDSEDGEKENEKSKTSDSSNDESSSIEDSSSDSESESEPESESESRRVTKEKEKKTKQDRTPLTKDVSLLDLDDFNPVSTPVALPTPALSPSLMADLEGLHLSTSSSVISVSTPAFVPTKTHVLLHRMSGKGLAAHYFFPRQPCIFGDKMVSIQITLNNTTDRKIENIHIGEKKLPIGMKMHVFNPIDSLEPEGSITVSMGIDFCDSTQTASFQLCTKDDCFNVNIQPPVGELLLPVAMSEKDFKKEQGVLTGMNETSAVIIAAPQNFTPSVIFQKVVNVANVGAVPSGQDNIHRFAAKTVHSGSLMLVTVELKEGSTAQLIINTEKTVIGSVLLRELKPVLSQG
B4: Hells (protein, UniProt Q9NRZ9 1-838)
chain: MPAERPAGSGGSEAPAMVEQLDTAVITPAMLEEEEQLEAAGLERERKMLEKARMSWDRESTEIRYRRLQHLLEKSNIYSKFLLTKMEQQQLEEQKKKEKLERKKESLKVKKGKNSIDASEEKPVMRKKRGREDESYNISEVMSKEEILSVAKKNKKENEDENSSSTNLCVEDLQKNKDSNSIIKDRLSETVRQNTKFFFDPVRKCNGQPVPFQQPKHFTGGVMRWYQVEGMEWLRMLWENGINGILADEMGLGKTVQCIATIALMIQRGVPGPFLVCGPLSTLPNWMAEFKRFTPDIPTMLYHGTQEERQKLVRNIYKRKGTLQIHPVVITSFEIAMRDRNALQHCYWKYLIVDEGHRIKNMKCRLIRELKRFNADNKLLLTGTPLQNNLSELWSLLNFLLPDVFDDLKSFESWFDITSLSETAEDIIAKEREQNVLHMLHQILTPFLLRRLKSDVALEVPPKREVVVYAPLSKKQEIFYTAIVNRTIANMFGSSEKETIELSPTGRPKRRTRKSINYSKIDDFPNELEKLISQIQPEVDRERAVVEVNIPVESEVNLKLQNIMMLLRKCCNHPYLIEYPIDPVTQEFKIDEELVTNSGKFLILDRMLPELKKRGHKVLLFSQMTSMLDILMDYCHLRDFNFSRLDGSMSYSEREKNMHSFNTDPEVFIFLVSTRAGGLGINLTAADTVIIYDSDWNPQSDLQAQDRCHRIGQTKPVVVYRLVTANTIDQKIVERAAAKRKLEKLIIHKNHFKGGQSGLNLSKNFLDPKELMELLKSRDYEREIKGSREKVISDKDLELLLDRSDLIDQMNASGPIKEKMGIFKILENSEDSSPECLF
B5: Clybl (protein, UniProt Q8N0X4 23-340)
chain: ASLAADIPRLGYSSSSHHKYIPRRAVLYVPGNDEKKIKKIPSLNVDCAVLDCEDGVAANKKNEARLRIVKTLEDIDLGPTEKCVRVNSVSSGLAEEDLETLLQSRVLPSSLMLPKVESPEEIQWFADKFSFHLKGRKLEQPMNLIPFVETAMGLLNFKAVCEETLKVGPQVGLFLDAVVFGGEDFRASIGATSSKETLDILYARQKIVVIAKAFGLQAIDLVYIDFRDGAGLLRQSREGAAMGFTGKQVIHPNQIAVVQEQFSPSPEKIKWAEELIAAFKEHQQLGKGAFTFQGSMIDMPLLKQAQNTVTLATSIKEK

target: Biotin-FOXC1 (mouse) (UniProt Q61572); assay: affinity purification with mass spectrometry; streptavidin-agarose precipitation of biotinylated FOXC1 from nuclear extract of stable HEK293T cells (293T-Biotin-FOXC1); IP350 buffer (350 mM NaCl, 20 mM Tris-HCl pH 7.5, 0.5% NP40, 1 mM EDTA, 10% glycerin); SDS-PAGE, LC-ESI-MS/MS; proteins of the 293T-Biotin control deducted

| Binder | binding |
| --- | --- |
| B1 | binds |
| B2 | binds |
| B3 | binds |
| B4 | binds |
| B5 | binds |
